Measurements taken from patent US8552183B2, “Process for the covalent coupling of two molecules by means of a diels-alder reaction with inverse electron requirement” (Deutsches Krebsforschungszentrum Stiftung des Offentlichen …, priority 2006, dated 2013).
Some results were stated once for a whole list of compounds, not compound by compound.

Test: Time to completion of DARinv of reactive dienophiles with tetrazines
Assay type: physicochemical
Details: 25° C., equimolar amounts of the reactants

## COC(=O)[C@@H]1C2C=CC(C3C=CC32)[C@@H]1C(=O)OC (some centres unmarked) [compound 13]
  time within which the reactions are concluded: 10 to 60 min

## O=C1[C@@H]2C3C=CC(C4C=CC43)[C@@H]2C(=O)N1CCO (some centres unmarked) [compound 14]
  time within which the reactions are concluded: 10 to 60 min
